Article PMC10180197, “Novel Pyrimidine Derivatives as Antioxidant and Anticancer Agents: Design, Synthesis and Molecular Modeling Studies” (Molecules, 2023)

Test: Interaction with glutathione
Settings: for ελmax: 24 h
[1] = compound + 2[GSH] (two-fold glutathione), pH 7.4, 37 °C
[2] = compound alone, phosphate buffer pH 7.4, 37 °C

## O=c1[nH]c(=S)[nH]c2nc(-c3ccc(Cl)cc3)cc(-c3ccc(Cl)cc3)c12 [Compound 2f, 5,7-bis(4-chlorophenyl)-2-thioxo-2,3-dihydropyrido [2,3-d]pyrimidin-4(1H)-one]
[1]
  ελmax: 220 M⁻¹ cm⁻¹
[2]
  ελmax: 1130 M⁻¹ cm⁻¹

## O=C(/C=C/c1ccc(Cl)cc1Cl)c1ccc(Cl)cc1 [Compound 1h, (E)-1-(4-chlorophenyl)-3-(2,4-dichlorophenyl)prop-2-en-1-one]
In words, after incubation
  Interaction with glutathione: apart from

## O=c1[nH]c(=S)[nH]c2nc(-c3ccccc3)cc(-c3ccccc3)c12 [Compound 2a, 5,7-diphenyl-2-thioxo-2,3-dihydropyrido [2,3-d]pyrimidin-4(1H)-one]
[1]
  ελmax: 4200 M⁻¹ cm⁻¹
[2]
  ελmax: 5385 M⁻¹ cm⁻¹
